“And” between values parts separate entries of the source, which are not always exact repeats. Equal values may be shown once. Some of the results follow. For some assays here: The exact form of the protein is not confirmed.
Experiments:
Assay in all cases: protein microarray (ProtoArray v5.0), streptavidin-Alexa Fluor 647
Settings in all cases: 3'-biotin; 20 mM Tris (pH 7.5), 5 mM MgCl2, 100 mM KCl, 0.1% Tween-20, A/T-rich and random oligonucleotide blockers; temperature not stated; high values mean tight binding
[1] = test system: Huntingtin-interacting protein M (human)
[2] = test system: Hydroxysteroid dehydrogenase-like protein 1 (human)
ICA1L (human) = test system: ICA1L (human)
ICEBERG (human) = test system: ICEBERG (human)
IDH3B (human) = test system: IDH3B (human)
IDI2 (human) = test system: IDI2 (human)
IFI35 (human) = test system: IFI35 (human)
IFIH1 (human) = test system: IFIH1 (human)
IFIT3 (human) = test system: IFIT3 (human)
IFITM2 (human) = test system: IFITM2 (human)
IFITM3 (human) = test system: IFITM3 (human)
IFNA1 = target: T1, IFNA1 (UniProt P0DY56)
T1 sequence: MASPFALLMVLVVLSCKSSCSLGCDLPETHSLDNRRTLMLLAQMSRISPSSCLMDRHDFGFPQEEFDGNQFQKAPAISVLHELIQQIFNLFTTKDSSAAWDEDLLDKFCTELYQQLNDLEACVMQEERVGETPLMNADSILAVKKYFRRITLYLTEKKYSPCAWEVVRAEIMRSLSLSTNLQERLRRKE

IFNA2 (human) = test system: IFNA2 (human)
IFNA21 (human) = test system: IFNA21 (human)
IFNA5 (human) = test system: IFNA5 (human)
IFNA6 (human) = test system: IFNA6 (human)
IFNA8 (human) = test system: IFNA8 (human)
IFNAR2 (human) = test system: IFNAR2 (human)
IFNGR2 (human) = test system: IFNGR2 (human)
IFNK (human) = test system: IFNK (human)

GGGAGGCTGAGGCAGG [G4-1 biotinylated (PQS2)]
binding signal [1]: -0.34 z-score | binding signal [2]: -0.335 z-score | binding signal (ICA1L (human)): -0.324 z-score and -0.3 z-score | binding signal (ICEBERG (human)): -0.344 z-score | binding signal (IDH3B (human)): -0.31 z-score | binding signal (IDI2 (human)): -0.303 z-score | binding signal (IFI35 (human)): -0.338 z-score | binding signal (IFIH1 (human)): -0.317 z-score | binding signal (IFIT3 (human)): -0.365 z-score | binding signal (IFITM2 (human)): -0.257 z-score | binding signal (IFITM3 (human)): -0.308 z-score | binding signal (IFNA1): -0.333 z-score | binding signal (IFNA2 (human)): -0.33 z-score | binding signal (IFNA21 (human)): -0.281 z-score | binding signal (IFNA5 (human)): -0.35 z-score | binding signal (IFNA6 (human)): -0.326 z-score | binding signal (IFNA8 (human)): -0.341 z-score | binding signal (IFNAR2 (human)): -0.303 z-score | binding signal (IFNGR2 (human)): -0.309 z-score | binding signal (IFNK (human)): -0.344 z-score

Reference: paper PMC5996148
